Source: PMC5582868, “BLADE-ON-PETIOLE proteins act in an E3 ubiquitin ligase complex to regulate PHYTOCHROME INTERACTING FACTOR 4 abundance” (eLife, 2017)
Results are given in words; binding and its absence hold for the method and conditions named. Binding seen in cells or lysates may run through a third protein. Some entries that bind do so weakly or less than the wild type. Sequences can lack the tags named with a protein.

B1: HA-CUL3A (CULLIN3A), expressed in protoplasts (protein, UniProt Q9ZVH4 1-732)
chain: MSNQKKRNFQIEAFKHRVVVDPKYADKTWQILERAIHQIYNQDASGLSFEELYRNAYNMVLHKFGEKLYTGFIATMTSHLKEKSKLIEAAQGGSFLEELNKKWNEHNKALEMIRDILMYMDRTYIESTKKTHVHPMGLNLWRDNVVHFTKIHTRLLNTLLDLVQKERIGEVIDRGLMRNVIKMFMDLGESVYQEDFEKPFLDASSEFYKVESQEFIESCDCGDYLKKSEKRLTEEIERVAHYLDAKSEEKITSVVEKEMIANHMQRLVHMENSGLVNMLLNDKYEDLGRMYNLFRRVTNGLVTVRDVMTSHLREMGKQLVTDPEKSKDPVEFVQRLLDERDKYDKIINTAFGNDKTFQNALNSSFEYFINLNARSPEFISLFVDDKLRKGLKGITDVDVEVILDKVMMLFRYLQEKDVFEKYYKQHLAKRLLSGKTVSDDAERSLIVKLKTECGYQFTSKLEGMFTDMKTSEDTMRGFYGSHPELSEGPTLIVQVLTTGSWPTQPAVPCNLPAEVSVLCEKFRSYYLGTHTGRRLSWQTNMGTADIKAIFGKGQKHELNVSTFQMCVLMLFNNSDRLSYKEIEQATEIPAADLKRCLQSLACVKGKNVIKKEPMSKDIGEEDLFVVNDKFTSKFYKVKIGTVVAQKETEPEKQETRQRVEEDRKPQIEAAIVRIMKSRKILDHNNIIAEVTKQLQPRFLANPTEIKKRIESLIERDFLERDSTDRKLYRYLA
B2: CUL3A, native protein of Arabidopsis seedlings (protein, UniProt Q9ZVH4 1-732)
chain: MSNQKKRNFQIEAFKHRVVVDPKYADKTWQILERAIHQIYNQDASGLSFEELYRNAYNMVLHKFGEKLYTGFIATMTSHLKEKSKLIEAAQGGSFLEELNKKWNEHNKALEMIRDILMYMDRTYIESTKKTHVHPMGLNLWRDNVVHFTKIHTRLLNTLLDLVQKERIGEVIDRGLMRNVIKMFMDLGESVYQEDFEKPFLDASSEFYKVESQEFIESCDCGDYLKKSEKRLTEEIERVAHYLDAKSEEKITSVVEKEMIANHMQRLVHMENSGLVNMLLNDKYEDLGRMYNLFRRVTNGLVTVRDVMTSHLREMGKQLVTDPEKSKDPVEFVQRLLDERDKYDKIINTAFGNDKTFQNALNSSFEYFINLNARSPEFISLFVDDKLRKGLKGITDVDVEVILDKVMMLFRYLQEKDVFEKYYKQHLAKRLLSGKTVSDDAERSLIVKLKTECGYQFTSKLEGMFTDMKTSEDTMRGFYGSHPELSEGPTLIVQVLTTGSWPTQPAVPCNLPAEVSVLCEKFRSYYLGTHTGRRLSWQTNMGTADIKAIFGKGQKHELNVSTFQMCVLMLFNNSDRLSYKEIEQATEIPAADLKRCLQSLACVKGKNVIKKEPMSKDIGEEDLFVVNDKFTSKFYKVKIGTVVAQKETEPEKQETRQRVEEDRKPQIEAAIVRIMKSRKILDHNNIIAEVTKQLQPRFLANPTEIKKRIESLIERDFLERDSTDRKLYRYLA

Experiments:
[1] = molecular target: T1, myc-BOP1 (BLADE-ON-PETIOLE 1) (Arabidopsis thaliana) (UniProt Q9M1I7); assay: co-IP; Arabidopsis protoplasts co-transfected with one myc-tagged BOP and one HA-tagged partner; anti-myc (9E10) immunoprecipitation on Protein G-Sepharose, 2 hr at 4°C, EB buffer with 150 mM NaCl and 0.2 mg/ml BSA; blot with anti-HA
T1 sequence: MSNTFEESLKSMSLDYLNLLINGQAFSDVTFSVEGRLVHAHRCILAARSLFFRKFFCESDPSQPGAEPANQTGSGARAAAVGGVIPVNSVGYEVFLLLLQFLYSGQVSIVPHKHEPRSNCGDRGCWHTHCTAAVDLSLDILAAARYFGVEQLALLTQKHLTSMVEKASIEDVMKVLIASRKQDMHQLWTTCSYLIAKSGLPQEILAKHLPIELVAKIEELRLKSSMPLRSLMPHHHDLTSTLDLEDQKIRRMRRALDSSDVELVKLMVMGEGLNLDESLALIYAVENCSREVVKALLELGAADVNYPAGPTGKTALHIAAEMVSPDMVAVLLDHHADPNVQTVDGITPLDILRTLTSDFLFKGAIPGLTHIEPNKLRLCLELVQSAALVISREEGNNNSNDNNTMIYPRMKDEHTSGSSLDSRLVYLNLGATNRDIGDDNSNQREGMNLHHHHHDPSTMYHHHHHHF

[2] = molecular target: T2, myc-BOP2 (BLADE-ON-PETIOLE 2), expressed in protoplasts (Arabidopsis thaliana) (UniProt Q9ZVC2); assay: as above
T2 sequence: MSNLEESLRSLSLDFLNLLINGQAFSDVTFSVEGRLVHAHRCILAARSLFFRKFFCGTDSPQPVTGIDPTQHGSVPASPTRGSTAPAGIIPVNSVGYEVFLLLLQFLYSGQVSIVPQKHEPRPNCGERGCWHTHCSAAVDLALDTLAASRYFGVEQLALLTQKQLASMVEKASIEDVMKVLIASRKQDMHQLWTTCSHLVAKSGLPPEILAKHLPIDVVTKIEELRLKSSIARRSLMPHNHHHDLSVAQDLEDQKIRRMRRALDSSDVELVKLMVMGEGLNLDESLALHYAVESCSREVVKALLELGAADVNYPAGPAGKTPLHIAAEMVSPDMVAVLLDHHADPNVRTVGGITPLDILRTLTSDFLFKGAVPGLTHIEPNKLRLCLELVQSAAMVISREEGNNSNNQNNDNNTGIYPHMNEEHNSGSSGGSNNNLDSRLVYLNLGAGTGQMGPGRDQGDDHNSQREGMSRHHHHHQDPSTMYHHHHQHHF

[3] = molecular target: T2, myc-BOP2 (BLADE-ON-PETIOLE 2), expressed in protoplasts (Arabidopsis thaliana); assay: co-IP; Arabidopsis protoplasts co-expressing HA-CUL3A, myc-BOP2 and HA-PIF4 together; anti-myc immunoprecipitation; both HA proteins detected at once with anti-HA
[4] = molecular target: T3, myc-BOP2 in 35S::myc-BOP2 transgenic plants (Arabidopsis thaliana) (UniProt Q9ZVC2); assay: co-IP; extract of 4-day-old dark-grown 35S::myc-BOP2 seedlings (Col-0 as negative control); anti-myc immunoprecipitation; native CUL3A detected with anti-AtCul3 polyclonal antibody
T3 sequence: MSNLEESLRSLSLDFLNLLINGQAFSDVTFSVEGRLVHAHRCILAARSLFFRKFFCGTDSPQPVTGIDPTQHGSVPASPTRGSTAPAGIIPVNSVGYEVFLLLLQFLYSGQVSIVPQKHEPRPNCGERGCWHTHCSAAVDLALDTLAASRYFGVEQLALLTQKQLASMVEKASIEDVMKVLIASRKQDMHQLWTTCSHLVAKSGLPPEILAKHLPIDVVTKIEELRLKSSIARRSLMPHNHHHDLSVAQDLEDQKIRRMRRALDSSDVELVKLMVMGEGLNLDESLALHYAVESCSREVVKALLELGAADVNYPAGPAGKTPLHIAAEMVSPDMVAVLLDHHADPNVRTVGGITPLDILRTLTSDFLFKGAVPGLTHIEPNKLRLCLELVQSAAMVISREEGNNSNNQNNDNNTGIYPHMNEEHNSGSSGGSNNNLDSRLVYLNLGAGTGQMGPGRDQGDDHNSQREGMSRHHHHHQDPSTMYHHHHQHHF

| Binder | binding [1] | binding [2] | binding [3] | binding [4] |
| --- | --- | --- | --- | --- |
| B1 | binds | binds | binds |  |
| B2 |  |  |  | binds |
